# The supplement of paper PMC8728848
# This is one part of the list.
# How the values were obtained:
# Assay in all cases: glycan array binding signal (z-score within array); higher = stronger binding
# Conditions in all cases: glycan notation: IUPAC condensed, linker removed
# Kdn(a2-3)Gal(b1-4)Glc = molecular target: Kdn(a2-3)Gal(b1-4)Glc
# How it was run: (§1)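 Glycan array data were curated from 3228 arrays in the Consortium for Functional Glycomics database and kept only where the protein sequence was available. Glycan names were converted to IUPAC-condensed notation, and columns mapping to the same glycan were averaged. The binding signal is a within-array Z-score, averaged across arrays of the same protein sequence at different concentrations or buffers and across linkers. Negative Z-scores can be read as non-binding.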
# Kdn(a2-3)Gal(b1-4)GlcNAc = molecular target: Kdn(a2-3)Gal(b1-4)GlcNAc
# How it was run: as §1
# [1] = molecular target: Kdn(a2-3)Gal(b1-4)[Fuc(a1-3)]GlcNAc
# How it was run: as §1
# Kdn(a2-6)Gal(b1-4)GlcNAc = molecular target: Kdn(a2-6)Gal(b1-4)GlcNAc
# How it was run: as §1
# [2] = molecular target: Man(a1-2)Man(a1-2)Man(a1-3)Man
# How it was run: as §1
# [3] = molecular target: Man(a1-2)Man(a1-2)Man(a1-6)[Man(a1-3)]Man
# How it was run: as §1
# Man(a1-2)Man(a1-3)Man = molecular target: Man(a1-2)Man(a1-3)Man
# How it was run: as §1
# [4] = molecular target: Man(a1-2)Man(a1-3)[Man(a1-2)Man(a1-6)]Man
# How it was run: as §1
# [5] = molecular target: Man(a1-2)Man(a1-3)[Man(a1-2)Man(a1-6)]Man(a1-6)[Man(a1-2)Man(a1-2)Man(a1-3)]Man
# How it was run: as §1
# [6] = molecular target: Man(a1-2)Man(a1-3)[Man(a1-2)Man(a1-6)]Man(a1-6)[Man(a1-2)Man(a1-2)Man(a1-3)]Man(b1-4)GlcNAc(b1-4)GlcNAc
# How it was run: as §1
# [7] = molecular target: Man(a1-2)Man(a1-3)[Man(a1-6)]Man(a1-6)[Man(a1-2)Man(a1-3)]Man(b1-4)GlcNAc(b1-4)GlcNAc
# How it was run: as §1
# [8] = molecular target: Man(a1-2)Man(a1-6)[Man(a1-3)]Man(a1-6)[Man(a1-2)Man(a1-2)Man(a1-3)]Man
# How it was run: as §1
# [9] = molecular target: Man(a1-2)Man(a1-6)[Man(a1-3)]Man(a1-6)[Man(a1-2)Man(a1-2)Man(a1-3)]Man(b1-4)GlcNAc(b1-4)GlcNAc
# How it was run: as §1
# Man(a1-3)[Man(a1-6)]Man = molecular target: Man(a1-3)[Man(a1-6)]Man
# How it was run: as §1
# [10] = molecular target: Man(a1-3)[Man(a1-6)]Man(a1-6)[Man(a1-2)Man(a1-3)]Man(b1-4)GlcNAc(b1-4)GlcNAc
# How it was run: as §1
# [11] = molecular target: Man(a1-3)[Man(a1-6)]Man(a1-6)[Man(a1-3)]Man
# How it was run: as §1
# [12] = molecular target: Man(a1-3)[Man(a1-6)]Man(a1-6)[Man(a1-3)]Man(b1-4)GlcNAc(b1-4)GlcNAc
# How it was run: as §1
# [13] = molecular target: Man(a1-3)[Man(a1-6)]Man(b1-4)GlcNAc(b1-4)GlcNAc
# How it was run: as §1
# [14] = molecular target: Man(a1-3)[Man(a1-6)]Man(b1-4)GlcNAc(b1-4)[Fuc(a1-6)]GlcNAc
# How it was run: as §1
# Man(a1-6)Man = molecular target: Man(a1-6)Man
# How it was run: as §1
# Man(b1-4)GlcNAc = molecular target: Man(b1-4)GlcNAc
# How it was run: as §1
# MurNAc(b1-4)GlcNAc = molecular target: MurNAc(b1-4)GlcNAc
# How it was run: as §1
# Neu5Ac(a2-3)Gal = molecular target: Neu5Ac(a2-3)Gal
# How it was run: as §1
# [15] = molecular target: Neu5Ac(a2-3)Gal(b1-3)GalNAc
# How it was run: as §1
# [16] = molecular target: Neu5Ac(a2-3)Gal(b1-3)GalNAc(b1-3)Gal(a1-4)Gal(b1-4)Glc
# How it was run: as §1
# [17] = molecular target: Neu5Ac(a2-3)Gal(b1-3)GalNAc(b1-4)[Neu5Ac(a2-3)]Gal(b1-4)Glc
# How it was run: as §1
# [18] = molecular target: Neu5Ac(a2-3)Gal(b1-3)GalNAc(b1-4)[Neu5Ac(a2-8)Neu5Ac(a2-3)]Gal(b1-4)Glc
# How it was run: as §1
# [19] = molecular target: Neu5Ac(a2-3)Gal(b1-3)GalNAc6S
# How it was run: as §1
# [20] = molecular target: Neu5Ac(a2-3)Gal(b1-3)GlcNAc
# How it was run: as §1
# [21] = molecular target: Neu5Ac(a2-3)Gal(b1-3)GlcNAc(b1-2)Man
# How it was run: as §1
# [22] = molecular target: Neu5Ac(a2-3)Gal(b1-3)GlcNAc(b1-2)Man(a1-3)[GlcNAc(b1-4)][Neu5Ac(a2-3)Gal(b1-3)GlcNAc(b1-2)Man(a1-6)]Man(b1-4)GlcNAc(b1-4)GlcNAc
# How it was run: as §1
# [23] = molecular target: Neu5Ac(a2-3)Gal(b1-3)GlcNAc(b1-2)Man(a1-3)[Neu5Ac(a2-3)Gal(b1-3)GlcNAc(b1-2)Man(a1-6)]Man(b1-4)GlcNAc(b1-4)GlcNAc
# How it was run: as §1
# [24] = molecular target: Neu5Ac(a2-3)Gal(b1-3)GlcNAc(b1-3)Gal(b1-3)GlcNAc
# How it was run: as §1
# [25] = molecular target: Neu5Ac(a2-3)Gal(b1-3)GlcNAc(b1-3)Gal(b1-4)GlcNAc
# How it was run: as §1
# [26] = molecular target: Neu5Ac(a2-3)Gal(b1-3)GlcNAc(b1-3)GalNAc
# How it was run: as §1
# [27] = molecular target: Neu5Ac(a2-3)Gal(b1-3)GlcNAc(b1-4)Gal(b1-4)Glc
# How it was run: as §1
# [28] = molecular target: Neu5Ac(a2-3)Gal(b1-3)GlcNAc(b1-6)GalNAc
# How it was run: as §1
# [29] = molecular target: Neu5Ac(a2-3)Gal(b1-3)GlcNAc6S
# How it was run: as §1
binder,measurement,setting,value
PX14343E-bfa-545-24-545 (Bacteroides fragilis) (protein) LDRYPQEELSDGSFWKTPDDANKVVSDLYGYLSTWDQDNDINSDNATMGIKWAAGNVSKGIYDPADQGWSGDYANVRQCNLILSKIDEIPDYPEADKTKALGQVYFFRAYIYFNLIRSFGDVPYIDKPLDLKDMEGITRMPRAEVYEKIMADFDKAIAALPTEWGASDYGRVTKGAAMAMKARAALYYGNWDTAATEAKNVMDLGLYELYDKDNTGKYAELFWEKADGCDEFILVTQFNYPDKTHYLMGWECFPTKGWGGMNPTQSLVDAFEDSEGAPISKSKIYDPTDPFKNRDPRLEVDILHDGEEMYGVTIKVAPLASSGSTGINQHNDATETGYYGQKWLDPSLDPLSDGWNMGKDWVHIRYAEVLLTYAEAKNELQGLDPEAFDAVNQVRRRVGMPELQNTDPSKPTYCATQDDLRQRIRNEWRVEFCLEGGKRMWDIRRWGIAKDVLNAPFEGLKYKIVDNPNDPDKKVDGGKMCILYQGDPIILSGSRYSDNNYLFPVPQSEIDLNPALTQNPGY,glycan array binding signal (z-score),Kdn(a2-3)Gal(b1-4)Glc,-0.184
same,glycan array binding signal (z-score),Kdn(a2-3)Gal(b1-4)GlcNAc,-0.606
same,glycan array binding signal (z-score),[1],0.153
same,glycan array binding signal (z-score),Kdn(a2-6)Gal(b1-4)GlcNAc,-0.048
same,glycan array binding signal (z-score),[2],-0.508
same,glycan array binding signal (z-score),[3],-0.704
same,glycan array binding signal (z-score),Man(a1-2)Man(a1-3)Man,-0.688
same,glycan array binding signal (z-score),[4],-0.963
same,glycan array binding signal (z-score),[5],-0.94
same,glycan array binding signal (z-score),[6],-0.197
same,glycan array binding signal (z-score),[7],-0.486
same,glycan array binding signal (z-score),[8],0.11
same,glycan array binding signal (z-score),[9],-0.424
same,glycan array binding signal (z-score),Man(a1-3)[Man(a1-6)]Man,0.601
same,glycan array binding signal (z-score),[10],-0.092
same,glycan array binding signal (z-score),[11],-0.075
same,glycan array binding signal (z-score),[12],-0.602
same,glycan array binding signal (z-score),[13],-0.762
same,glycan array binding signal (z-score),[14],-0.452
same,glycan array binding signal (z-score),Man(a1-6)Man,0.514
same,glycan array binding signal (z-score),Man(b1-4)GlcNAc,-0.722
same,glycan array binding signal (z-score),MurNAc(b1-4)GlcNAc,-0.184
same,glycan array binding signal (z-score),Neu5Ac(a2-3)Gal,-0.082
same,glycan array binding signal (z-score),[15],-0.541
same,glycan array binding signal (z-score),[16],-0.469
same,glycan array binding signal (z-score),[17],-0.236
same,glycan array binding signal (z-score),[18],-0.153
same,glycan array binding signal (z-score),[19],-0.665
same,glycan array binding signal (z-score),[20],-0.072
same,glycan array binding signal (z-score),[21],0.093
same,glycan array binding signal (z-score),[22],-0.52
same,glycan array binding signal (z-score),[23],0.72
same,glycan array binding signal (z-score),[24],-1.12
same,glycan array binding signal (z-score),[25],-0.932
same,glycan array binding signal (z-score),[26],-0.854
same,glycan array binding signal (z-score),[27],-0.36
same,glycan array binding signal (z-score),[28],0.298
same,glycan array binding signal (z-score),[29],-0.434

# 2 entries from above, bar-delimited.
binder | measurement | setting | value
PX14343E-bfa-545-24-545 (Bacteroides fragilis) (protein) LDRYPQEELSDGSFWKTPDDANKVVSDLYGYLSTWDQDNDINSDNATMGIKWAAGNVSKGIYDPADQGWSGDYANVRQCNLILSKIDEIPDYPEADKTKALGQVYFFRAYIYFNLIRSFGDVPYIDKPLDLKDMEGITRMPRAEVYEKIMADFDKAIAALPTEWGASDYGRVTKGAAMAMKARAALYYGNWDTAATEAKNVMDLGLYELYDKDNTGKYAELFWEKADGCDEFILVTQFNYPDKTHYLMGWECFPTKGWGGMNPTQSLVDAFEDSEGAPISKSKIYDPTDPFKNRDPRLEVDILHDGEEMYGVTIKVAPLASSGSTGINQHNDATETGYYGQKWLDPSLDPLSDGWNMGKDWVHIRYAEVLLTYAEAKNELQGLDPEAFDAVNQVRRRVGMPELQNTDPSKPTYCATQDDLRQRIRNEWRVEFCLEGGKRMWDIRRWGIAKDVLNAPFEGLKYKIVDNPNDPDKKVDGGKMCILYQGDPIILSGSRYSDNNYLFPVPQSEIDLNPALTQNPGY | glycan array binding signal (z-score) | [24] | -1.12
same | glycan array binding signal (z-score) | [25] | -0.932
